Measurements published in the supplement of paper PMC11150407.
Values joined by “and” are separate entries in the source; they are usually repeats but may differ in a detail not shown here. Equal entries are not always repeated. Structures can show the parent of a compound that is named as a salt. Out of some 2,100 compounds screened, about 180 (8.6%) showed an effect of 50% or more. The list shows a part of the results.

System: MOLM1 and UCSD/AML1 (averaged)
Test: cell viability relative to DMSO control (POC); higher = less growth inhibition
Details: 1 µM; 72 h
Description: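 Primary viability screen in the 3q26 EVI1-high AML cell lines MOLM1 and UCSD/AML1 (1.5e3 cells/well, 384-well), compounds at 1 uM for 72 h. ATP CellTiter-Glo read-out given as percent of viable cells over DMSO control (POC), averaged over duplicates. DMSO was the negative control and 5 uM etoposide the positive control. This mapping covers the MicroSource Spectrum and Selleck anticancer libraries (drug names).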

SMILES | cell viability
C#C[C@]1(O)CC[C@H]2[C@@H]3CCc4cc(OC)ccc4[C@H]3CC[C@@]21C | 92.9%
CC(C)NCC(O)c1ccc(NS(C)(=O)=O)cc1 (centres undefined) | 94.8%
CC(=O)N1CCN(c2ccc(OCC3COC(Cn4ccnc4)(c4ccc(Cl)cc4Cl)O3)cc2)CC1 (centres undefined) | 114%
C[C@H](NC(=O)Cc1cc(F)cc(F)c1)C(=O)N[C@@H]1C(=O)N(C)c2ccccc2-c2ccccc21 | 101%
O=c1c(-c2ccc(O)cc2)coc2cc(O)cc(O)c12 | 120%
O=C1C=C2CC3(O)COc4cc(O)ccc4C3=C2C=C1O (centres undefined) | 99.3%
N[C@H](Cc1ccccc1)C(=O)O | 109%
CCCc1nc(C)c2c(O)nc(-c3cc(S(=O)(=O)N4CCN(CC)CC4)ccc3OCC)nn12 | 105%
CNC(=C[N+](=O)[O-])NCCSCc1ccc(CN(C)C)o1 | 100%
COc1cc2c(cc1OC)-c1cc3ccc(OC)c(OC)c3c[n+]1CC2 | 95.7% and 88.9%
COC(=O)[C@H]1[C@H]2C[C@@H]3c4[nH]c5cc(OC)ccc5c4CCN3C[C@H]2C[C@@H](OC(=O)c2cc(OC)c(OC)c(OC)c2)[C@@H]1OC | 106%
CC(=O)C12OC(C)(c3ccccc3)OC1CC1C3CCC4=CC(=O)CCC4(C)C3CCC12C (centres undefined) | 89.4%
CC(C)(CO)[C@@H](O)C(=O)NCCCO | 103%
CC(C)C[C@H](NC(=O)CNC(=O)c1cc(Cl)ccc1Cl)B(O)O [Ixazomib (MLN2238)] | 1.39%
O=C(O[C@@H]1Cc2c(O)cc(O)cc2O[C@@H]1c1cc(O)c(O)c(O)c1)c1cc(O)c(O)c(O)c1 | 94.8%
O=C(O[C@@H]1Cc2c(O)cc(O)cc2O[C@@H]1c1cc(O)c(O)c(O)c1)c1cc(O)c(O)c(O)c1 [(-)-Epigallocatechin gallate] | 98.3%
CC(C(=O)O)[C@H]1CCC2C3CC=C4C[C@@H](O)CC[C@]4(C)C3CC[C@@]21C (stereo partly drawn) [3beta-HYDROXY-23,24-BISNORCHOL-5-ENIC ACID] | 109%
CCN(CC)CCNC(=O)c1ccc(NC(C)=O)cc1 | 101%
CCOc1ccn(-c2ccc(F)cc2)c(=O)c1C(=O)Nc1ccc(Oc2ccnc(N)c2Cl)c(F)c1 | 79%
CNC[C@H](O)c1cccc(O)c1 | 101%
Cc1cccc(-c2[nH]c(C(C)(C)C)nc2-c2ccc3nccnc3c2)n1 | 115%
CC[C@@]1(O)C(=O)OCc2c1cc1n(c2=O)Cc2cc3cc(O)ccc3nc2-1 | 7.32%
O=C1C(CC[S+]([O-])c2ccccc2)C(=O)N(c2ccccc2)N1c1ccccc1 (centres undefined) | 112%

SMILES | cell viability
NS(=O)(=O)c1cc2c(cc1Cl)N=C(CSCc1ccccc1)NS2(=O)=O | 104%
CC(=O)OC/C=C(C)/C=C/C=C(C)/C=C/C1=C(C)CCCC1(C)C | 118%
N=c1ccn2c(n1)O[C@H]1[C@H](O)[C@@H](CO)O[C@H]12 | 5.77%
CS(=O)(=O)c1ccc([C@@H](O)[C@@H](CO)NC(=O)C(Cl)Cl)cc1 | 96.4%
O=c1[nH]cc(F)c(=O)[nH]1 | 90.4%
O=c1[nH]cc(F)c(=O)[nH]1 [Adrucil (Fluorouracil)] | 89.3%
C[C@]12C=CC(=O)C=C1CC[C@@H]1[C@@H]2[C@@H](O)C[C@@]2(C)[C@H]1CC[C@]2(O)C(=O)CO | 77.6%
O=C(O)Cc1ccccc1Nc1c(Cl)cccc1Cl | 96.8%
C[C@@H]1O[C@@H](Oc2c(-c3ccc(O)c(O)c3)oc3cc(O)cc(O)c3c2=O)[C@H](O)[C@H](O)[C@H]1O | 100%
COC(=O)C1=C(C)NC(C)=C(C(=O)OC)C1c1ccccc1[N+](=O)[O-] | 97.2%
COc1cc2c(cc1O)CC[C@@H]1[C@@H]2CC[C@]2(C)[C@@H](O)CC[C@@H]12 [2-Methoxyestradiol] | 13.7%
Nc1ccc(O)c(C(=O)O)c1 | 89.2%
Clc1ccccc1CN1CCc2sccc2C1 | 116%
Cc1cc(OC(=O)c2c(C)cc(O)cc2O)cc(O)c1C(=O)O | 103%
CN(C)CCCN1c2ccccc2CCc2ccc(Cl)cc21 | 97.2%
Cc1cc(C(C)(C)CC(C)(C)C)ccc1OCCOCC[N+](C)(C)Cc1ccccc1 | 88.2%
Cc1cc(NC(=O)C2=C(O)c3ccccc3S(=O)(=O)N2C)no1 | 103%
C#C[C@]1(OC(C)=O)CC[C@H]2[C@@H]3CCC4=C[C@@H](OC(C)=O)CC[C@@H]4[C@H]3CC[C@@]21C | 83.8%
CC(C)[C@H](C(=O)Nc1ccc(C(=O)NO)cc1)c1ccccc1 | 0.459%
Nc1ccc(S(=O)(=O)Nc2ncccn2)cc1 | 100%
CC(=O)NCC(=O)N1[C@@H]2CC[C@H]1c1ccc(Nc3ncc(C(F)(F)F)c(NC4CCC4)n3)cc12 | 20.2%
CO[C@@]1(NC(=O)C(C(=O)O)c2ccc(O)cc2)C(=O)N2C(C(=O)O)=C(CSc3nnnn3C)CO[C@@H]21 (some centres undefined) | 83.2%
O=c1c(O)c(-c2ccccc2)oc2ccccc12 | 97.5%

A second format for part of the listing above.
SMILES	cell viability
O=C(O)Cc1ccccc1Nc1c(Cl)cccc1Cl	96.8%
C[C@@H]1O[C@@H](Oc2c(-c3ccc(O)c(O)c3)oc3cc(O)cc(O)c3c2=O)[C@H](O)[C@H](O)[C@H]1O	100%
COC(=O)C1=C(C)NC(C)=C(C(=O)OC)C1c1ccccc1[N+](=O)[O-]	97.2%
COc1cc2c(cc1O)CC[C@@H]1[C@@H]2CC[C@]2(C)[C@@H](O)CC[C@@H]12 [2-Methoxyestradiol]	13.7%
Nc1ccc(O)c(C(=O)O)c1	89.2%

(list continues)

SMILES | cell viability
C#C[C@]1(O)CC[C@H]2[C@@H]3CCC4=CC(=O)CC[C@@H]4[C@H]3CC[C@@]21C | 99.4%
CN(C)CCc1c[nH]c2ccc(C[C@H]3COC(=O)N3)cc12 | 65.8%
CN(C)CCC=C1c2ccccc2C=Cc2ccccc21 | 101%
NS(=O)(=O)c1cc2c(cc1Cl)NCNS2(=O)=O | 98.3%
CNNCc1ccc(C(=O)NC(C)C)cc1 [Procarbazine hydrochloride (Matulane)] | 50.4%
Nc1ccc(C(=O)Oc2ccccc2)c(O)c1 | 99.4%
C[n+]1cccc(C(=O)[O-])c1 | 97.7%
O=C(O)c1cc(O)c2c(c1)[C@H]([C@H]1c3cc(C(=O)O)cc(O)c3C(=O)c3c(O[C@@H]4O[C@H](CO)[C@@H](O)[C@H](O)[C@H]4O)cccc31)c1cccc(O[C@@H]3O[C@H](CO)[C@@H](O)[C@H](O)[C@H]3O)c1C2=O | 58%
CC(c1cc2ccccc2s1)N(O)C(N)=O (centres undefined) | 95.3%
CC(c1cc2ccccc2s1)N(O)C(N)=O (centres undefined) [Zileuton] | 118%
NC(=O)c1ncn([C@@H]2O[C@H](CO)[C@@H](O)[C@H]2O)c1N | 119%
CCC(=O)O[C@H]1[C@H](O[C@@H]2[C@@H](C)[C@H](O[C@H]3C[C@@](C)(OC)[C@@H](O)[C@H](C)O3)[C@@H](C)C(=O)O[C@H](CC)[C@@](C)(O)[C@H](O)[C@@H](C)C(=O)[C@H](C)C[C@@]2(C)O)O[C@H](C)C[C@@H]1N(C)C | 89.8%
OC[C@@H](O)[C@@H](O)[C@H](O)[C@@H](O)CO | 106%
CCCCCCCCCCCCCc1ccco1 | 97.1%
COc1cc(C(=O)N2CCOCC2)cc(OC)c1OC | 96.1%
CC(=O)OCC(=O)[C@@]1(O)CC[C@H]2[C@@H]3CCC4=CC(=O)CC[C@]4(C)[C@H]3C(=O)C[C@@]21C | 101%
CCCCC(=O)O[C@]1(C(=O)CO)[C@@H](C)C[C@H]2[C@@H]3CCC4=CC(=O)C=C[C@]4(C)[C@@]3(F)[C@@H](O)C[C@@]21C | 70.8%
COc1cc(O)c(C(C)=O)c(OC)c1 | 101%
CN(C)CCCOc1nn(Cc2ccccc2)c2ccccc12 | 82.5%
Nc1ccc(S(=O)(=O)Nc2ccc(Cl)nn2)cc1 | 89.8%
CC(C)(O)CC[C@@H](O)[C@](C)(O)[C@H]1CC[C@@]2(O)C3=CC(=O)[C@@H]4C[C@@H](O)[C@@H](O)C[C@]4(C)[C@H]3CC[C@]12C | 101%
Oc1ccc(O)cc1 | 83.1%
CN1CCN(c2cccc(Nc3nc4c(-c5ccc(S(C)(=O)=O)cc5)cccn4n3)c2)CC1 | 33.3%

SMILES | cell viability
CC1CCC(NC(=O)N(CCCl)N=O)CC1 (centres undefined) | 94%
C[C@H]1[C@H](NC(=O)/C(=N\OC(C)(C)C(=O)O)c2csc(N)n2)C(=O)N1S(=O)(=O)O | 90.4%
COc1ccc(C2CC(=O)c3ccc(OC)cc3O2)cc1 (centres undefined) | 109%
CNCCC=C1c2ccccc2CCc2ccccc21 | 101%
CC(=O)O[C@H]1CC[C@]2(C)[C@H]3CC[C@@]4(C)[C@H](c5ccoc5)OC(=O)[C@H]5O[C@]54[C@]3(C)[C@H](OC(C)=O)C[C@H]2C1(C)C [3beta-ACETOXYDEOXODIHYDROGEDUNIN] | 91.2%
Cc1ccc2c(c1)CC[C@H]1CC(=O)CC[C@]21C | 104%
CCc1c2c(nc3ccc(OC(=O)N4CCC(N5CCCCC5)CC4)cc13)-c1cc3c(c(=O)n1C2)COC(=O)[C@]3(O)CC [Irinotecan HCl Trihydrate (Campto)] | 15.9%
CCc1c2c(nc3ccc(OC(=O)N4CCC(N5CCCCC5)CC4)cc13)-c1cc3c(c(=O)n1C2)COC(=O)[C@]3(O)CC [Irinotecan] | 13%
CC(C)(O/N=C(\C(=O)N[C@@H]1C(=O)N2C(C(=O)[O-])=C(C[n+]3ccccc3)CS[C@H]12)c1csc(N)n1)C(=O)O | 95.2%
Cc1ccc(/C(=C\CN2CCCC2)c2ccccn2)cc1 | 90.1%
CCC[C@H](NC(=O)/C(C#N)=C/c1cccc(Br)n1)c1ccccc1 | 57.8%
CCOc1cc2ncc(C#N)c(Nc3ccc(OCc4ccccn4)c(Cl)c3)c2cc1NC(=O)/C=C/CN(C)C [Neratinib (HKI-272)] | 14.7%
CN1CCN(C(c2ccccc2)c2ccc(Cl)cc2)CC1 (centres undefined) | 97.5%
Cc1ccc(C(C)C)cc2c(C)ccc1-2 | 84.7%
CC(=O)Nc1c(I)c(NC(C)=O)c(I)c(C(=O)O)c1I | 114%
CC(=O)Nc1ccc(S(=O)(=O)Nc2ccc([N+](=O)[O-])cc2)cc1 | 101%
Cn1cc(C2=C(c3ccc(Cl)cc3Cl)C(=O)NC2=O)c2ccccc21 | 106%
CN(N=O)C(=O)N[C@@H](C=O)[C@@H](O)[C@H](O)[C@H](O)CO [Streptozotocin (Zanosar)] | 37.4%
CCn1cc(C(=O)O)c(=O)c2cc(F)c(N3CCN(C)CC3)cc21 | 51.4%
C[C@@H]1O[C@@H]1P(=O)(O)O | 95%

Taken from the entries so far (two entries):
SMILES | cell viability
Oc1ccc(O)cc1 | 83.1%
CN1CCN(c2cccc(Nc3nc4c(-c5ccc(S(C)(=O)=O)cc5)cccn4n3)c2)CC1 | 33.3%
